Results are given in words; binding and its absence hold for the method and conditions named. In cells and extracts the contact can be indirect. Some results given as binding are weak or reduced against the parent protein; the word gives no strength. For part of these data: Sequences can lack the tags named with a protein.

Protein sequences, listed by entry. Tags and fused reporters are not part of them. Lines headed by an entry give the natural chain unless they say otherwise; changes in a name come on top. Residues count along the entry.
UniProt Q64514: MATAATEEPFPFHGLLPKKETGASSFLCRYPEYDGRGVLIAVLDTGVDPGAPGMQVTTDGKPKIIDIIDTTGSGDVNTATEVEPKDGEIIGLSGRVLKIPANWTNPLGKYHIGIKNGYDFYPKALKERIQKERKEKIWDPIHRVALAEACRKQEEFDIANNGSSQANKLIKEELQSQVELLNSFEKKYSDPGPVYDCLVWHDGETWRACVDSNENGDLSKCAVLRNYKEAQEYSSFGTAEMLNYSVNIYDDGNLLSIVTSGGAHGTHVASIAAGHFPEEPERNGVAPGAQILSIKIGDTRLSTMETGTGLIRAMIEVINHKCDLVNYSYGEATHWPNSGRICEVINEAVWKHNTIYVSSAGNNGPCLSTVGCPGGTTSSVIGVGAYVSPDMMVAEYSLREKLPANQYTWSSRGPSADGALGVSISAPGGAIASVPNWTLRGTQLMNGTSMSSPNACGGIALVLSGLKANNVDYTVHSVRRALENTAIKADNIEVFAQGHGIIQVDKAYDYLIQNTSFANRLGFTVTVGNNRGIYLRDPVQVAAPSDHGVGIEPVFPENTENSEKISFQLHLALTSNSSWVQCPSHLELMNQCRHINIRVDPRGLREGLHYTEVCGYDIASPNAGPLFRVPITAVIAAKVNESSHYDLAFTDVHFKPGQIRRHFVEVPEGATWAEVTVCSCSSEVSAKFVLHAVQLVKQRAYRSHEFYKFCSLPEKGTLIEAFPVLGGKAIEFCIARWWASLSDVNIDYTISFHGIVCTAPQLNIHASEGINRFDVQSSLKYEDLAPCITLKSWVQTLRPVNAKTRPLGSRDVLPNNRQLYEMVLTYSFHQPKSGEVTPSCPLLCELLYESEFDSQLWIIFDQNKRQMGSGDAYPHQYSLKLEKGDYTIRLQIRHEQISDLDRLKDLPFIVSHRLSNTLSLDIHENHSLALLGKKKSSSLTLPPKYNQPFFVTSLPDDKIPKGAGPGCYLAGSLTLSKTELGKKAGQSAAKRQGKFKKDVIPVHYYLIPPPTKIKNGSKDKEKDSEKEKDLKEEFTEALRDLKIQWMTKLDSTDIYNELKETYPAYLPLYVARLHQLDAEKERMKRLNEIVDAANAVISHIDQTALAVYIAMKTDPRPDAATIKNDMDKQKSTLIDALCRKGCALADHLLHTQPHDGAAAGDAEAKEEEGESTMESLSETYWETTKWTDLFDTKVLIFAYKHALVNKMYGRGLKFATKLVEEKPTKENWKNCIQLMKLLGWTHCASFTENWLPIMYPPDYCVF
UniProt P29144: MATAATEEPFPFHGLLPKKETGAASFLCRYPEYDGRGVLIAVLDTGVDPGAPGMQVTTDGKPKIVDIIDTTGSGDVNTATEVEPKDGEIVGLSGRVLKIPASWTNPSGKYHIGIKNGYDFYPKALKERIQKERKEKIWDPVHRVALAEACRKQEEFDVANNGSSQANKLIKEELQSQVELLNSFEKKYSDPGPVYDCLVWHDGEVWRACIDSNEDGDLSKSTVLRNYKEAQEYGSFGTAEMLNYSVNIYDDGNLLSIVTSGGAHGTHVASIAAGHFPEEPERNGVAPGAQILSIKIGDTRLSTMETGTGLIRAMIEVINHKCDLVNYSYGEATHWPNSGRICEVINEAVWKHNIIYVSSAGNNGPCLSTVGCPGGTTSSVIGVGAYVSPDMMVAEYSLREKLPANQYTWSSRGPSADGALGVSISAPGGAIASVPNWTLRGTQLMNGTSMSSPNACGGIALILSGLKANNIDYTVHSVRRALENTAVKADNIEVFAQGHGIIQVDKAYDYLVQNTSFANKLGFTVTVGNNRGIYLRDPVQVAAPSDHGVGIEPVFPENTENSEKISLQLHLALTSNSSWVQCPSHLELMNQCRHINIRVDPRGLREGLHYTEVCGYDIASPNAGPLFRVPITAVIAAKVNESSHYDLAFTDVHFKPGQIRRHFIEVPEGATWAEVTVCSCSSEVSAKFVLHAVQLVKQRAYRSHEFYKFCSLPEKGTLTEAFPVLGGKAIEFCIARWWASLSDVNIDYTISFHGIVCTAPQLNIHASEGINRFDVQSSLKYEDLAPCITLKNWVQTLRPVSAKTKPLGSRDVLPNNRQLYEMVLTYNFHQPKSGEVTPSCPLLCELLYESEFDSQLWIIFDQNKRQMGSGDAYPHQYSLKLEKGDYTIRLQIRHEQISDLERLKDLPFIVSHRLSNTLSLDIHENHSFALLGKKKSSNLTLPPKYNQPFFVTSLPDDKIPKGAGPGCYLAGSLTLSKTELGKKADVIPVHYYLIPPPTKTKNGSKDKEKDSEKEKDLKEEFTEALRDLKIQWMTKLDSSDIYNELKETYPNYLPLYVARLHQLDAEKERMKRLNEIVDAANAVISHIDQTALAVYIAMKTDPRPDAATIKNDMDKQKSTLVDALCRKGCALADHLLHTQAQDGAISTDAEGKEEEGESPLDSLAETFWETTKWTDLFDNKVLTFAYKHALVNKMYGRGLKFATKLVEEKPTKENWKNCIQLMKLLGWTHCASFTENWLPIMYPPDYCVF
truncated TPP2 mutant with deletion of its conserved C domain (AA 508-1249): residues 1-507 of P29144
UniProt P18850: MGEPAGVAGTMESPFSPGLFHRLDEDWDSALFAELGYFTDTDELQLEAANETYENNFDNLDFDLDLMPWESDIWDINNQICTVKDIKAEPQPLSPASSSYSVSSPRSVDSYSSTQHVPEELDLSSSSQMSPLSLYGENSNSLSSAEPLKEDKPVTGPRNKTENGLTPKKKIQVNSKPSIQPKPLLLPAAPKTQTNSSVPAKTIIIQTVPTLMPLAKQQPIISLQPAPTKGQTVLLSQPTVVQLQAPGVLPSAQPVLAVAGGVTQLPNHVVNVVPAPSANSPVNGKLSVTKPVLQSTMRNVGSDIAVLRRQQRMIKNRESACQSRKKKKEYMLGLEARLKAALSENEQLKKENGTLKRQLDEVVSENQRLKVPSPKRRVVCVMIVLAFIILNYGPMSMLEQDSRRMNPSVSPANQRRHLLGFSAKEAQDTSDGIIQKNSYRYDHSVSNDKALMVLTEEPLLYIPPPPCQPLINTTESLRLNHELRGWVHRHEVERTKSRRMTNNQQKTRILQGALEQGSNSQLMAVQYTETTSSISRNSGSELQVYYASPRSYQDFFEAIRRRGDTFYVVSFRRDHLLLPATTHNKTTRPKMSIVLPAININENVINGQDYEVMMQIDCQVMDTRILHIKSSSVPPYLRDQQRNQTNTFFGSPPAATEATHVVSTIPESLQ
UniProt F6VAN0: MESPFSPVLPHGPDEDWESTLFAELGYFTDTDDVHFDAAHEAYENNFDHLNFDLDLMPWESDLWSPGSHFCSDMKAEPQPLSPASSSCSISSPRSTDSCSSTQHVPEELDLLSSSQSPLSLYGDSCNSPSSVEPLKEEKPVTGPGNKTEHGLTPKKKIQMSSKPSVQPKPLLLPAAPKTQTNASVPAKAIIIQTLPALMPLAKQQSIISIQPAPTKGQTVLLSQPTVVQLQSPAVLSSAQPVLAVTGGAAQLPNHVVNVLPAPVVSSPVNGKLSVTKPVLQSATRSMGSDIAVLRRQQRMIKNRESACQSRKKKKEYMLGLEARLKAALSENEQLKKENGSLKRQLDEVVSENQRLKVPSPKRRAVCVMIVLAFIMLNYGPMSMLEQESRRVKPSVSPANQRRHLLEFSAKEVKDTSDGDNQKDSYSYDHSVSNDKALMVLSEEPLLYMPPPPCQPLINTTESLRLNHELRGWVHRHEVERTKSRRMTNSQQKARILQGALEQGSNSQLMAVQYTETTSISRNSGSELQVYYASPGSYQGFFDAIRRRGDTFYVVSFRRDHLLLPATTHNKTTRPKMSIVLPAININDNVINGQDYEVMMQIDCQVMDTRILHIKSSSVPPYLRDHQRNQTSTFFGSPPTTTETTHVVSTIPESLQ
UniProt Q9EQY0, residues 21-977: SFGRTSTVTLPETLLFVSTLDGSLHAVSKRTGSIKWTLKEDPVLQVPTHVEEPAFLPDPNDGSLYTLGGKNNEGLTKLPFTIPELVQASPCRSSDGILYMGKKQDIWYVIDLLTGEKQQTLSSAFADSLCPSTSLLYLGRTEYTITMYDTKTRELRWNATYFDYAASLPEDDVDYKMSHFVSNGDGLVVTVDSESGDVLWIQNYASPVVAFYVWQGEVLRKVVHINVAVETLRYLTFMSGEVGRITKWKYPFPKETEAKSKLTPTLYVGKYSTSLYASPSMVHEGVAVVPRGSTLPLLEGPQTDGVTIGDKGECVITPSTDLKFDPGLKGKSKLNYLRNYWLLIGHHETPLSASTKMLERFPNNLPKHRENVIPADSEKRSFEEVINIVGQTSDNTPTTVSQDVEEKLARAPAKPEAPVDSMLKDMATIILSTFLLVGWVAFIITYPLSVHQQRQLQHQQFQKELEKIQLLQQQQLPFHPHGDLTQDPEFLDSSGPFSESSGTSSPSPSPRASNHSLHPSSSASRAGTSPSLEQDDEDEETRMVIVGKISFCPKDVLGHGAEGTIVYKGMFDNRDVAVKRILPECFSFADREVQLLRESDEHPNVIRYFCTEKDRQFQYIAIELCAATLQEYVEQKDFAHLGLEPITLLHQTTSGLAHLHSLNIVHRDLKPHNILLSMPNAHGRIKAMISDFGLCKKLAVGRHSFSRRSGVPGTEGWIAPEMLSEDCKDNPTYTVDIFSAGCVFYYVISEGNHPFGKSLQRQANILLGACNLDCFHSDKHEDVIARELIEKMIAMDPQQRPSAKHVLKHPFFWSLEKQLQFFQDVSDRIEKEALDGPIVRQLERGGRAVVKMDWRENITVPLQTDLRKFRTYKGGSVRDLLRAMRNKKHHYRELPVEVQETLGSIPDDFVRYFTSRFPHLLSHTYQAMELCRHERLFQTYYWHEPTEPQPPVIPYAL
UniProt P49585: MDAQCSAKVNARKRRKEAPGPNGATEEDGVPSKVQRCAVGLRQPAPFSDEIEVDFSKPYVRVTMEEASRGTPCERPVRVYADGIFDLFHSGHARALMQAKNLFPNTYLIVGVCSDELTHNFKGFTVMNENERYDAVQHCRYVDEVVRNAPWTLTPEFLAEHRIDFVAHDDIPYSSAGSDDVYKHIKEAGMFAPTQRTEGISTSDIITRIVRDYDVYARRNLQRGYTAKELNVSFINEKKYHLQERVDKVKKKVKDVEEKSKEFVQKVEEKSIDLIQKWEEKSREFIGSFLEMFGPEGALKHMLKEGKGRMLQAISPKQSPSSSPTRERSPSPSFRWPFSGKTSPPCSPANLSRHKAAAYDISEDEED
UniProt P11021, residues 19-654: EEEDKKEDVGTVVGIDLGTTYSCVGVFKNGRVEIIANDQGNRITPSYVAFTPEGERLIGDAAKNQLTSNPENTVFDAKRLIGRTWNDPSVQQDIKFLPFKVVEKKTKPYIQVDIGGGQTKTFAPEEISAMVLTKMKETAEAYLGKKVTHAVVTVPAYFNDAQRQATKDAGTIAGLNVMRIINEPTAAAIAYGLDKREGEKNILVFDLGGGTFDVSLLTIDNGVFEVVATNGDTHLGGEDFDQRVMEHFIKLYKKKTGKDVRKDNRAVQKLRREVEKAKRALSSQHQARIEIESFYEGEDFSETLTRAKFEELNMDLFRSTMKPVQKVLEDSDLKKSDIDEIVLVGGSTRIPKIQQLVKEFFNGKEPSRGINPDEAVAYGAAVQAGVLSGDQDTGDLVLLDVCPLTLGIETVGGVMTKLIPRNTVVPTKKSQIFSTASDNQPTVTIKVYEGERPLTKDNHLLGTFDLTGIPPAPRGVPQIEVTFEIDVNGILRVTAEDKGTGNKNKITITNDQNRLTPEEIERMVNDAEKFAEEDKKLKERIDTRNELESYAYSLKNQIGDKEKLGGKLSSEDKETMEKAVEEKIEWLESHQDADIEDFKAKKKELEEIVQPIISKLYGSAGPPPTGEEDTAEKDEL
UniProt P20029, residues 20-655: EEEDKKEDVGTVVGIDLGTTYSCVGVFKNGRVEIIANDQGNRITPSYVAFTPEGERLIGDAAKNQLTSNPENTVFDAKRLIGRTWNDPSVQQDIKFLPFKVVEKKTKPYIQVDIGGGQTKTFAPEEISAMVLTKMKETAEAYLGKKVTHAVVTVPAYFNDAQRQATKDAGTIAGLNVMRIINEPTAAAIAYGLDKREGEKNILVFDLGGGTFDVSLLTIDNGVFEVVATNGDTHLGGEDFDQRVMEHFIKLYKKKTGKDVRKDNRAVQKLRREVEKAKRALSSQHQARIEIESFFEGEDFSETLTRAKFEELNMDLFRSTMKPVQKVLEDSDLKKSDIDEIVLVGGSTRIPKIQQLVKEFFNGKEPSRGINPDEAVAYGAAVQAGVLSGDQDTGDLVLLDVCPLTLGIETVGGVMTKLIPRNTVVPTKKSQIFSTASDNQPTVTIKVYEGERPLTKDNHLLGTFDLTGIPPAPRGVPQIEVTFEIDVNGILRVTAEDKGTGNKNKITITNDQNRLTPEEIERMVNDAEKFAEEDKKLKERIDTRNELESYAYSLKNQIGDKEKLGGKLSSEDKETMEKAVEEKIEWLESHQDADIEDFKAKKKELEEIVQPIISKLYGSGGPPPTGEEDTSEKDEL

Our source for the binding values is article PMC10879859.

Assay [1] deals with T1, choline-ethanolamine phosphotransferase 1 (CEPT1) (human (endogenous in 293T)) (UniProt Q9Y6K0).
T1 sequence: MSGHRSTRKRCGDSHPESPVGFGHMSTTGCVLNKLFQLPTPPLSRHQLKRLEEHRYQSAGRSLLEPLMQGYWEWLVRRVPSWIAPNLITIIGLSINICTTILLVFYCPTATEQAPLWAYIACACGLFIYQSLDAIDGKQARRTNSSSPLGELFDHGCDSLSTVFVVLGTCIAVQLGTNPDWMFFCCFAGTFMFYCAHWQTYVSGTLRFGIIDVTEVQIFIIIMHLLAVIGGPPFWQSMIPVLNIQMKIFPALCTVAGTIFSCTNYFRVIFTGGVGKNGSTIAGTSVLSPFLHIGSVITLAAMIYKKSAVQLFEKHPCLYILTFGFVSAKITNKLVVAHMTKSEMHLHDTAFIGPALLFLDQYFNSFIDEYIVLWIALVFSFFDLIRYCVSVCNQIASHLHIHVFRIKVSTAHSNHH
Description: co-IP; co-IP of CEPT1 with immunoblot for CCTα and CK, with or without 1 mM Ca^2+; CEPT1-ablated cells as control.

In assay [2] the target is T2, choline phosphotransferase 1 (CPT1) (human (endogenous in 293T)) (UniProt Q8WUD6).
T2 sequence: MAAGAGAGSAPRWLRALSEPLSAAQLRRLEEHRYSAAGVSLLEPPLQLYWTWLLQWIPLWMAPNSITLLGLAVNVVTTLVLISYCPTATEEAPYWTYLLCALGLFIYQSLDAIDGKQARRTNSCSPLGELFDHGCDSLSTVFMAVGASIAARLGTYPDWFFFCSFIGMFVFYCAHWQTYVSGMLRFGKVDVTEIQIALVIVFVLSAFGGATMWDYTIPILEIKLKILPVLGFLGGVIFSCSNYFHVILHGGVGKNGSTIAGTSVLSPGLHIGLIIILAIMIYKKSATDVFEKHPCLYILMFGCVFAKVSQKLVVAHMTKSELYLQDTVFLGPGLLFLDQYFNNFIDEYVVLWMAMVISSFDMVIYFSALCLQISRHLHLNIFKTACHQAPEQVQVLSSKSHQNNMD
Description: proximity ligation; Duolink in situ PLA on fixed, permeabilised 293T cells, endogenous proteins; wild-type cells, with TPP2-, ATF6-, IRE1-, PERK- or CEPT1-knockout cells and TG, XeC, PC or CCTα-KDEL treatments as comparisons.

Assay [3] has as its target T1, choline-ethanolamine phosphotransferase 1 (CEPT1) (human (endogenous in 293T)). The description is as above.
Assay [4] has as its target Tripeptidyl peptidase II (TPP2), mouse (mouse (endogenous in hippocampal neurons and hippocampus)) (UniProt Q64514). In words: co-IP; co-IP with immunoblot from mouse hippocampus (P30) homogenate; same lysis buffer; antibody on protein G agarose, 2 h at 4°C. A general note: In western blotting, separated proteins are transferred to a membrane and probed.
The target of assay [5] is TPP2 S449A (ectopically expressed in TPP2 knockout mouse hippocampal neurons) (UniProt P29144). In words: proximity ligation; Duolink in situ PLA on TPP2 knockout mouse hippocampal neurons ectopically expressing TPP2 S449A, S449T or the C terminal domain-deleted mutant.
Assay [6] deals with TPP2 S449T (ectopically expressed in TPP2 knockout mouse hippocampal neurons) (UniProt P29144). The description is as above.
The target in assay [7] is truncated TPP2 mutant with deletion of its conserved C domain (AA 508-1249) (UniProt P29144). The description is as above.
The target of assay [8] is Tripeptidyl peptidase II (TPP2), mouse (mouse (endogenous in hippocampal neurons and hippocampus)) (UniProt Q64514). In words: proximity ligation; Duolink in situ PLA on DIV10 mouse primary hippocampal neurons, endogenous proteins; wild-type neurons, female shown, with TPP2 knockout and male neurons as comparisons.
Assay [9] addresses inositol 1,4,5-triphosphate receptor (IP3R1), mouse (mouse (endogenous in hippocampal neurons and hippocampus)) (UniProt P11881). Described as above.
The target of assay [10] is sarcoendoplasmic reticulum Ca^2+ ATPase (SERCA1), mouse (mouse (endogenous in hippocampal neurons and hippocampus)) (UniProt Q8R429). The description is as above.
For assay [11], the target named is inositol 1,4,5-triphosphate receptor (IP3R1) (human (endogenous in 293T)) (UniProt Q14643). In words: proximity ligation; Duolink in situ PLA on fixed, permeabilised 293T cells, endogenous proteins; wild-type cells, with TPP2-, ATF6-, IRE1-, PERK- or CEPT1-knockout cells and TG, XeC, PC or CCTα-KDEL treatments as comparisons.
For assay [12], the target named is Activating transcription factor 6 (ATF6) (human (endogenous in 293T)) (UniProt P18850). Description: proximity ligation; Duolink in situ PLA on TPP2 knockout 293T cells (binding lost or barely left; restored by ectopic TPP2, TPP2 S449A/T, or by TG, PC or CCTα-KDEL as named).
Assay [13] shares this target. In words: proximity ligation; Duolink in situ PLA on fixed, permeabilised 293T cells, endogenous proteins; wild-type cells, with TPP2-, ATF6-, IRE1-, PERK- or CEPT1-knockout cells and TG, XeC, PC or CCTα-KDEL treatments as comparisons.
The target of assay [14] is Activating transcription factor 6 (ATF6), mouse (mouse (endogenous in hippocampal neurons and hippocampus)) (UniProt F6VAN0). Description: proximity ligation; Duolink in situ PLA on DIV10 mouse primary hippocampal neurons, endogenous proteins; wild-type neurons, female shown, with TPP2 knockout and male neurons as comparisons.
In assay [15] the target is Inositol-requiring enzyme 1 (IRE1), mouse (mouse (endogenous in hippocampal neurons and hippocampus)) (UniProt Q9EQY0). The assay is described as above.
Assay [16] deals with T3, PKR-like ER kinase (PERK), mouse (mouse (endogenous in hippocampal neurons and hippocampus)) (UniProt Q9Z2B5).
T3 sequence: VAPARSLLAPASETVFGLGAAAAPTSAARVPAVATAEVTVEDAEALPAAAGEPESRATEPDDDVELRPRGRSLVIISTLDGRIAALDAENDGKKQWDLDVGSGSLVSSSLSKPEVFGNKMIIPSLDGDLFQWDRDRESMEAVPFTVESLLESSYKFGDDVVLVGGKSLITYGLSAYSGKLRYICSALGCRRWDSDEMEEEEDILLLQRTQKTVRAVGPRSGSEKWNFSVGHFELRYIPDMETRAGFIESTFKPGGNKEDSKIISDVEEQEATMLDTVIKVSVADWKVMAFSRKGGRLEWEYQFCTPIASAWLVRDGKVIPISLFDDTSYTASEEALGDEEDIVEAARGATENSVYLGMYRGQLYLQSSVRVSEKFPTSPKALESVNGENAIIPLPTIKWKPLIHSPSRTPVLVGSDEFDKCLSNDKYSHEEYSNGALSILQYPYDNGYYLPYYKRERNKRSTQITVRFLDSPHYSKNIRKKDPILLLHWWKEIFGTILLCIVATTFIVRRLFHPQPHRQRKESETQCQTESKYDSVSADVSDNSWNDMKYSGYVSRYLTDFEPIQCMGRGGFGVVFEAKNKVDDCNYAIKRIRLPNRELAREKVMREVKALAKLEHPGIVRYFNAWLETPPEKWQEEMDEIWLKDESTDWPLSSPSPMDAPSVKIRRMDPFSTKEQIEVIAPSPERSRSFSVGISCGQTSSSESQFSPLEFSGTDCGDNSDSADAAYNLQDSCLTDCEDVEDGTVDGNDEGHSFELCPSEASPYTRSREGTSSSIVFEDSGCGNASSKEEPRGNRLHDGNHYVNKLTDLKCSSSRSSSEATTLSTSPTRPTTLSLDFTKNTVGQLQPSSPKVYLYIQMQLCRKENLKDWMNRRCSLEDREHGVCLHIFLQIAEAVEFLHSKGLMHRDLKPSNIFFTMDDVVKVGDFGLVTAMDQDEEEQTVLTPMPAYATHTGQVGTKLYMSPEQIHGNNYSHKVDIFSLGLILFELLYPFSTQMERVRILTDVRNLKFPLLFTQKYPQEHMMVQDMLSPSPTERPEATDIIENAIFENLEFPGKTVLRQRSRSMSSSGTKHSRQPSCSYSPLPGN
The assay is described as above.

Assay [17] has as its target Activating transcription factor 6 (ATF6), mouse (mouse (endogenous in hippocampal neurons and hippocampus)) (UniProt F6VAN0). In words: condition: only in TPP2 knockout hippocampal neurons of female mice; proximity ligation; Duolink in situ PLA on DIV10 TPP2 knockout hippocampal neurons of female mice (binding lost or barely left; reversed by TG 5 μM 5 h or PC).
Assay [18] has as its target Inositol-requiring enzyme 1 (IRE1), mouse (mouse (endogenous in hippocampal neurons and hippocampus)) (UniProt Q9EQY0). Described as above.
In assay [19] the target is T3, PKR-like ER kinase (PERK), mouse (mouse (endogenous in hippocampal neurons and hippocampus)). Described as above.
Assay [20] concerns the target Activating transcription factor 6 (ATF6) (human (endogenous in 293T)) (UniProt P18850). Description: proximity ligation; Duolink in situ PLA on TPP2 knockout 293T cells 24h after transfection with CYP19A1-FLAG or CYP19A1-S118A-FLAG expressing vector.
Assay [21] has the same target. In words: co-IP; co-IP of ATF6 with immunoblot, WT and TPP2 knockout 293T cells 48h after transfection with CYP19A1-FLAG expressing vector (p62 only in TPP2 knockout cells).

Turning to “CTP:phosphocholine cytidylyltransferase alpha (CCTα) (from UniProt P49585 1-367) (enzyme)”, the binding entry in [1], in assay [2] and in assay [3] was “binds” throughout.

Consider “Inositol-requiring enzyme 1 (IRE1), mouse (from UniProt Q9EQY0 21-977)”, for which the binding entry in assay [4] was “binds”; in assay [5] it was “binds”; in assay [6], “binds”; in assay [7] it was “no binding”; in assay [8], “binds”; in assay [9], “binds”. The binding entry in assay [10] was “binds”.

Take “calreticulin (CALR) (from UniProt P27797 18-417)”: the binding result in assay [11] is recorded as “binds”.

Consider “glucose-regulated protein 78 (GRP78/BiP/HSPA5) (from UniProt P11021 19-654)”, for which the binding entry in [12] is “no binding (condition: in TPP2 knockout 293T cells)”; in assay [13], “binds”.

For “glucose-regulated protein 78 (GRP78/BiP/HSPA5), mouse (from UniProt P20029 20-655)”, the binding entry in assay [14] was “binds”; in [15], “binds”; in [16] it was “binds”; in assay [17] it was “no binding”; in assay [18], “no binding”; in [19] it was “no binding”.

B1: rat CYP19A1-Flag (aromatase) (enzyme, UniProt P22443 1-508)
chain: MFLEMLNPMHYNVTIMVPETVPVSAMPLLLIMGLLLLIRNCESSSSIPGPGYCLGIGPLISHGRFLWMGIGSACNYYNKMYGEFMRVWISGEETLIISKSSSMVHVMKHSNYISRFGSKRGLQCIGMHENGIIFNNNPSLWRTVRPFFMKALTGPGLIRMVEVCVESIKQHLDRLGDVTDNSGYVDVVTLMRHIMLDTSNTLFLGIPLDESSIVKKIQGYFNAWQALLIKPNIFFKISWLYRKYERSVKDLKDEIEILVEKKRQKVSSAEKLEDCMDFATDLIFAERRGDLTKENVNQCILEMLIAAPDTMSVTLYVMLLLIAEYPEVETAILKEIHTVVGDRDIRIGDVQNLKVVENFINESLRYQPVVDLVMRRALEDDVIDGYPVKKGTNIILNIGRMHRLEYFPKPNEFTLENFEKNVPYRYFQPFGFGPRSCAGKYIAMVMMKVVLVTLLKRFHVKTLQKRCIENMPKNNDLSLHLDEDSPIVEIIFRHIFNTPFLQCLYISL
Take B1: the binding result in [20] and in assay [21] was “binds” throughout.
